Data on 1 substance can be found in patent US20190248900A1.

By UniProt entry, the sequences of proteins in these tests, tags left out. Where a name states a change or a piece, a line headed by the entry shows the natural chain unless it says otherwise. Residues count along the entry.
UniProt Q15116, residues 25-167: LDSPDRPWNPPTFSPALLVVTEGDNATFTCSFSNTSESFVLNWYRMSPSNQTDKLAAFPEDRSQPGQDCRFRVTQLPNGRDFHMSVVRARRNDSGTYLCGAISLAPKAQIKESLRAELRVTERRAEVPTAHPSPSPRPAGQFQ
UniProt Q9WUL5, residues 20-221: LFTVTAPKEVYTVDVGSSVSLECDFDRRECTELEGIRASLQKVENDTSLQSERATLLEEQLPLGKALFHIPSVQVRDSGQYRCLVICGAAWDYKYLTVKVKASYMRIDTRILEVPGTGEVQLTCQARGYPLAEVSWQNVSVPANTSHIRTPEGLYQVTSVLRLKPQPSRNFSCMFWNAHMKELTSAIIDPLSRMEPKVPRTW

This assay has as its target PD1-his (Catalog Number 10377-H08H, Sino Biological Inc.) (UniProt Q15116). Nature of the assay: ELISA, 1 ug/ml. For orientation: ELISA stands for enzyme-linked immunosorbent assay.

Results are given in words; binding and its absence hold for the method and conditions named. Some results given as binding are weak or reduced against the parent protein; the word gives no strength.

Take “mPDL2-mFC (from UniProt Q9WUL5) (Fc fusion)”: the binding entry was “binds”.
